This assay has as its target Myosin heavy chain 9 (human (endogenous in hPASMCs)) (UniProt P35579). The experiment in a line: co-IP.

Sequences of proteins named here, by UniProt entry; tags and fusion partners are left off.
UniProt P35579: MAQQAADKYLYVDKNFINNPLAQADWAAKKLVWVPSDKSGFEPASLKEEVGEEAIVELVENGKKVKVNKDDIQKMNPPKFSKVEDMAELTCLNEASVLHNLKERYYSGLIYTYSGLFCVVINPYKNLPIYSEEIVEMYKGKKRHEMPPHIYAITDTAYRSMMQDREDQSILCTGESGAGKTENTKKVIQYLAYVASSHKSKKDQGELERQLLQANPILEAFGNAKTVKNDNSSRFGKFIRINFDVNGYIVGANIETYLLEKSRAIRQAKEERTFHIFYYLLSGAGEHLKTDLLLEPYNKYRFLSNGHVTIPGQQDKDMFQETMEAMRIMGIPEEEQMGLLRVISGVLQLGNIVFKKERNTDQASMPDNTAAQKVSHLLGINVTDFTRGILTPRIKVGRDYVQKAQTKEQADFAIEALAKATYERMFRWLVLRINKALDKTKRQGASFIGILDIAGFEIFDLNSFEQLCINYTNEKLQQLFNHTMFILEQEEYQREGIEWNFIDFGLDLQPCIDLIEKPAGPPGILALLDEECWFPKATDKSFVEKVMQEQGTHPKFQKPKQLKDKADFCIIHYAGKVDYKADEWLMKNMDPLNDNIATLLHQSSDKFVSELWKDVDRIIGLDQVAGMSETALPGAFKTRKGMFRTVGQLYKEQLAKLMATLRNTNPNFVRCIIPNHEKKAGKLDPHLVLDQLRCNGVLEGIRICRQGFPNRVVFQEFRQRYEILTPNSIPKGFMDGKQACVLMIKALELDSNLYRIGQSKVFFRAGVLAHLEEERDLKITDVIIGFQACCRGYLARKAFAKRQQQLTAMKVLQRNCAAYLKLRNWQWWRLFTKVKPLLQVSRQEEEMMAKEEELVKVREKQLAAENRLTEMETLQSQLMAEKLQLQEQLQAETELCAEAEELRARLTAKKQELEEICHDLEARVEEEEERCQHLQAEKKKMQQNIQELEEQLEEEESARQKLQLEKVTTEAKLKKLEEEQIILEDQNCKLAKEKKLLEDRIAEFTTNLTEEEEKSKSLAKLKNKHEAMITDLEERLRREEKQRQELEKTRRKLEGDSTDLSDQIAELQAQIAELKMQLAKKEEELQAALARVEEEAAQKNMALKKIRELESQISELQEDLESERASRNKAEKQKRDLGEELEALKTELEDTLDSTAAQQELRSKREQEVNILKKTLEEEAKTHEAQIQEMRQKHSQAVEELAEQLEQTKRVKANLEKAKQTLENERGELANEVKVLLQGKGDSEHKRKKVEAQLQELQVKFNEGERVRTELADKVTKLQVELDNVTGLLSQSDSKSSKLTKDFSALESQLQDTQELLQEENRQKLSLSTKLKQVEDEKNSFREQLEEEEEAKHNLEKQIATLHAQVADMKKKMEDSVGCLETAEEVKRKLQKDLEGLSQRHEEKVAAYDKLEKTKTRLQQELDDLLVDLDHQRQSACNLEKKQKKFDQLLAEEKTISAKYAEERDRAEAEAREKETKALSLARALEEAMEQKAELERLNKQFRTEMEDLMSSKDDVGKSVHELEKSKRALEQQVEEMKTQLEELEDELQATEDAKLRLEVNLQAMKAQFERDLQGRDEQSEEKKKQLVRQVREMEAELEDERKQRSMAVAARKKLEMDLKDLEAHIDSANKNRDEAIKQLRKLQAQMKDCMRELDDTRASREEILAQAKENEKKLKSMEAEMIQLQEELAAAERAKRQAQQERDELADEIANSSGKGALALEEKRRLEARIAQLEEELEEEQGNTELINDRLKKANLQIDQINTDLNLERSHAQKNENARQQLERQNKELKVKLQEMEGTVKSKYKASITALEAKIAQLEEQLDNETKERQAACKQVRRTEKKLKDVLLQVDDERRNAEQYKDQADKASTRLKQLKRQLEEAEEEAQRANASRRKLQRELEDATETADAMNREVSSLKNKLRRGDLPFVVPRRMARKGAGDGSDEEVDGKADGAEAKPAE
UniProt Q13283: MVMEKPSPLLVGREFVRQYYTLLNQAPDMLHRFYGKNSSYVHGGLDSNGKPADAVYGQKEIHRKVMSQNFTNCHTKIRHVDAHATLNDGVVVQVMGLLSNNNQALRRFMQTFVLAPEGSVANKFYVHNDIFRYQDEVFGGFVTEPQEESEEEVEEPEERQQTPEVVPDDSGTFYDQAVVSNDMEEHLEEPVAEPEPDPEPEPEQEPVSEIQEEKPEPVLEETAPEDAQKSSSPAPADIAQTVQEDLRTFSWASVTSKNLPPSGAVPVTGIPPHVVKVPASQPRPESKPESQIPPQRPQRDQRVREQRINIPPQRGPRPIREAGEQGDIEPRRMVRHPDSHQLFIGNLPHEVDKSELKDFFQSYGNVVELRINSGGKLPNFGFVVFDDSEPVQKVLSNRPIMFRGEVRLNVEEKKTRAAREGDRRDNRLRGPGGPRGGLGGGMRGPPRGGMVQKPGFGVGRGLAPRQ

No constants are given. Whether binding was seen depends on the method and setting. In cells and extracts the contact can be indirect. Some results given as binding are weak or reduced against the parent protein; the word gives no strength.

Turning to “Ras GTPase-activating protein-binding protein 1 (from UniProt Q13283 1-466)”, the binding result was “binds”.

For the origin of these results see publication doi:10.1101/2024.12.20.629439.
